These are yes or no findings as the source states them, for the method shown. In cells and extracts the contact can be indirect. Here binding means that the protein was enriched with, or labelled near, the bait; the list need not be complete. Values belong to the molecule of their own block, whether it stands above or below them.
Legend:
Assay in all cases: affinity purification with mass spectrometry
[1] = target: linker histone H1.2 (unmodified) (human) (UniProt P16403)
[2] = target: H1.2 K17Ac (H1.2 acetylated at lysine 17) (human) (UniProt P16403)
[3] = target: H1.2 K64Ac (H1.2 acetylated at lysine 64) (human) (UniProt P16403)
[4] = target: H1.2 K17K64Ac (H1.2 acetylated at lysines 17 and 64) (human) (UniProt P16403)

Chains of the proteins cited; added tags and fusions are not shown.
UniProt P16403: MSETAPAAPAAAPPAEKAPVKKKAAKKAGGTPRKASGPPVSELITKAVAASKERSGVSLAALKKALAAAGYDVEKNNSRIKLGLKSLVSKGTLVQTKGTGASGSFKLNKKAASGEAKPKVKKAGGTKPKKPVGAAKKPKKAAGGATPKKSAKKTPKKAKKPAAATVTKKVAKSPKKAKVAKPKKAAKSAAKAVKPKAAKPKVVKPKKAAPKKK
UniProt Q01105: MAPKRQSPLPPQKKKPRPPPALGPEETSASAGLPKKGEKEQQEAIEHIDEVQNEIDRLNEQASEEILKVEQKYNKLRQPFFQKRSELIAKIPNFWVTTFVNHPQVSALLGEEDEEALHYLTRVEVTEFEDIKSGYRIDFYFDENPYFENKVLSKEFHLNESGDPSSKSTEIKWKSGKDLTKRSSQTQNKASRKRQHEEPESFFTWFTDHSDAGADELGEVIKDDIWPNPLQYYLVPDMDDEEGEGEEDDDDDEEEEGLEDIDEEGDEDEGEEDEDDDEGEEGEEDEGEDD
UniProt Q15022: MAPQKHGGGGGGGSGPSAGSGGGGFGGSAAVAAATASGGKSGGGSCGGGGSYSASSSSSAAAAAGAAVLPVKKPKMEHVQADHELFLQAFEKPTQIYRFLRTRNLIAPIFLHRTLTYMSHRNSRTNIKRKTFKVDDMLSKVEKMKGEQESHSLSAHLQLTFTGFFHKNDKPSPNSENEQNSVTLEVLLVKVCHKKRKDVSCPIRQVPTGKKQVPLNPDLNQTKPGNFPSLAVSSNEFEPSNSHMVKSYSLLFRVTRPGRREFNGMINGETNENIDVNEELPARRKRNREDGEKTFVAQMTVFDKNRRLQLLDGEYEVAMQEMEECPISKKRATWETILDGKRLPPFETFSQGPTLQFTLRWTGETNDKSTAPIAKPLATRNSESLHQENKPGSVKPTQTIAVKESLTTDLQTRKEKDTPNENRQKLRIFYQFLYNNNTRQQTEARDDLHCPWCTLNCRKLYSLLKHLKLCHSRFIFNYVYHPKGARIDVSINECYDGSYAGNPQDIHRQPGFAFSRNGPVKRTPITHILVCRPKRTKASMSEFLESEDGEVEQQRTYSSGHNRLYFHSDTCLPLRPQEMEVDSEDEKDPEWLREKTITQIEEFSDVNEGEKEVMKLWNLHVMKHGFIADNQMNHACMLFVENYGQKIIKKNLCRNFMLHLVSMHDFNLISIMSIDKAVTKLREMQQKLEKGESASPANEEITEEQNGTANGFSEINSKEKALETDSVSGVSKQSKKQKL
UniProt Q6ZN18: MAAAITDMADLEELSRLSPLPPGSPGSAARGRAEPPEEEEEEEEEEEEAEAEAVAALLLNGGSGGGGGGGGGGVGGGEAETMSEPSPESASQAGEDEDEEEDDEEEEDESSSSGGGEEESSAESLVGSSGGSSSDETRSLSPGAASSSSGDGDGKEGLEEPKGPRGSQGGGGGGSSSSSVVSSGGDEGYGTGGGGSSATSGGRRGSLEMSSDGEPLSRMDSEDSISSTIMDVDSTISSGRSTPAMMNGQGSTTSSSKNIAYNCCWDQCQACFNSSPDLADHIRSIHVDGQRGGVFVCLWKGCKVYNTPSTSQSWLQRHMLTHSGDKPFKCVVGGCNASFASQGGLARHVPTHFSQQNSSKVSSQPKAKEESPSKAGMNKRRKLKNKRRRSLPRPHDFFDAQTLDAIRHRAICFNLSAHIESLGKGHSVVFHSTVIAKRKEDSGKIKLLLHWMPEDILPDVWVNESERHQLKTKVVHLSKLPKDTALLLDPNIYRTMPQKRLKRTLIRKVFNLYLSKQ
UniProt Q9UBL3: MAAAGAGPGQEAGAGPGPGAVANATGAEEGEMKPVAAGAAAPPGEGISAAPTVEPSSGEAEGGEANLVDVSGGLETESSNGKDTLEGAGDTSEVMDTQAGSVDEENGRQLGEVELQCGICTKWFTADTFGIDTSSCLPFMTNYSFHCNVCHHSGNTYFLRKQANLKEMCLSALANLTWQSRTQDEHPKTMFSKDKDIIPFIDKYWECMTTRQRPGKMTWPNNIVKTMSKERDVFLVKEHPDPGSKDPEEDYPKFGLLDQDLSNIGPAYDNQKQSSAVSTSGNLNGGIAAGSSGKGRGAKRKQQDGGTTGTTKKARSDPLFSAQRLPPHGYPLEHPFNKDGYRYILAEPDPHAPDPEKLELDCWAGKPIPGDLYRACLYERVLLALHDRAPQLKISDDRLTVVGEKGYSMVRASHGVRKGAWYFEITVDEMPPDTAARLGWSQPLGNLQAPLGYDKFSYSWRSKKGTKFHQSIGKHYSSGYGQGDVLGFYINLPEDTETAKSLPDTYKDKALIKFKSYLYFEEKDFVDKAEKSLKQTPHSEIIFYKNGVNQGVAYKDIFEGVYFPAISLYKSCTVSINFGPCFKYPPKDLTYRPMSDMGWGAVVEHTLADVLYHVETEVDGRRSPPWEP
UniProt Q9P0U4: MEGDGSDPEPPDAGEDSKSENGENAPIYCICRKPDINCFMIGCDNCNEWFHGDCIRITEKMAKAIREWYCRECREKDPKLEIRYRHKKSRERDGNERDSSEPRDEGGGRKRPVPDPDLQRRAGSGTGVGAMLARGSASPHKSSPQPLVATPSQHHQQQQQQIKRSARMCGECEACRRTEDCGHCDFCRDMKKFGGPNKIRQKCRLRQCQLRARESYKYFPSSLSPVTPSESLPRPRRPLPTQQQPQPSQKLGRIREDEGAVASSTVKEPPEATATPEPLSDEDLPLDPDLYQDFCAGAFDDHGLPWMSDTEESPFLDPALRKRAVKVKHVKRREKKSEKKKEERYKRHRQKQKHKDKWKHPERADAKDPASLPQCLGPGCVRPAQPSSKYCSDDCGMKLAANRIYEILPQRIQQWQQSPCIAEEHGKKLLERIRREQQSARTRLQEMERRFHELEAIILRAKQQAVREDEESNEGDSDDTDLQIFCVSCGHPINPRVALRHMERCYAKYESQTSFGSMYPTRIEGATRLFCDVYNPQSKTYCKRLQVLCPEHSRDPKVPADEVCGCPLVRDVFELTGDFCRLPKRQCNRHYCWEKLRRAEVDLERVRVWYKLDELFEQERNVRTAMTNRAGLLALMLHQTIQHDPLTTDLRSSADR

Molecule: SET (from UniProt Q01105 1-290)
binding [3]: binds
binding [1]: binds
binding [4]: binds
binding [2]: binds

Molecule: SUZ12 (from UniProt Q15022 1-739)
binding [1]: binds
binding [2]: binds

B1: ASCC2 (protein, UniProt Q9H1I8 1-757)
chain: MPALPLDQLQITHKDPKTGKLRTSPALHPEQKADRYFVLYKPPPKDNIPALVEEYLERATFVANDLDWLLALPHDKFWCQVIFDETLQKCLDSYLRYVPRKFDEGVASAPEVVDMQKRLHRSVFLTFLRMSTHKESKDHFISPSAFGEILYNNFLFDIPKILDLCVLFGKGNSPLLQKMIGNIFTQQPSYYSDLDETLPTILQVFSNILQHCGLQGDGANTTPQKLEERGRLTPSDMPLLELKDIVLYLCDTCTTLWAFLDIFPLACQTFQKHDFCYRLASFYEAAIPEMESAIKKRRLEDSKLLGDLWQRLSHSRKKLMEIFHIILNQICLLPILESSCDNIQGFIEEFLQIFSSLLQEKRFLRDYDALFPVAEDISLLQQASSVLDETRTAYILQAVESAWEGVDRRKATDAKDPSVIEEPNGEPNGVTVTAEAVSQASSHPENSEEEECMGAAAAVGPAMCGVELDSLISQVKDLLPDLGEGFILACLEYYHYDPEQVINNILEERLAPTLSQLDRNLDREMKPDPTPLLTSRHNVFQNDEFDVFSRDSVDLSRVHKGKSTRKEENTRSLLNDKRAVAAQRQRYEQYSVVVEEVPLQPGESLPYHSVYYEDEYDDTYDGNQVGANDADSDDELISRRPFTIPQVLRTKVPREGQEEDDDDEEDDADEEAPKPDHFVQDPAVLREKAEARRMAFLAKKGYRHDSSTAVAGSPRGHGQSRETTQERRKKEANKATRANHNRRTMADRKRSKGMIPS
binding [4]: binds
binding [2]: binds

Second part, the molecule after the results:

binding [1]: binds
binding [2]: binds
Molecule: AEBP2 (from UniProt Q6ZN18 1-517)

binding [1]: binds
binding [2]: binds
Molecule: ASH2L (from UniProt Q9UBL3 1-628)

binding [1]: binds
binding [2]: binds
Molecule: CXXC1 (from UniProt Q9P0U4 1-656)

— paper doi:10.1101/2021.06.08.447242
